Source: patent US10864285B2, “Methods for the diagnosis and treatment of Sjögren's syndrome” (The U.S.A., as represented by the Secretary, Department of …, priority 2012, dated 2020)

Tested on: salivary glands of mice
Assay: Salivary gland morphology (H&E, trichrome) and AQP5 immunofluorescence
Assay type: in vivo, mouse
Conditions: AAV5BMP6 transduced vs GFP control vector treated mice

B1: BMP6: A member of the TGF-β superfamily of growth factors; added to cultured cells at 6 ng/ml (protein, UniProt P22004 375-513, looked up)
Bone morphogenetic protein 6: SASSRRRQQSRNRSTQSQDVARVSSASDYNSSELKTACRKHELYVSFQDLGWQDWIIAPKGYAANYCDGECSFPLNAHMNATNHAIVQTLVHLMNPEYVPKPCCAPTKLNAISVLYFDDNSNVILKKYRNMVVRACGCH
Extracellular matrix and acini morphology: thickening of the extracellular matrix surrounding the acini and enlarged acini
